Data reported in PubChem BioAssay AID2685 (National Center for Advancing Translational Sciences (NCATS), 2010).
The list shows a part of the results. The main result of the screen is listed elsewhere. These columns were measured beside it and carry no call. Most of these compounds were active or inconclusive in the main read-out, so they are no random draw. Words in brackets tell the shape of the fitted curve; partial curves, single points and poor fits give uncertain potencies.

Test: qHTS Assay for Lipid Storage Modulators in Drosophila S3 Cells;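 for cell number change: cells counted by Cell Tracker Red CMTPX staining in the red channel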
Conditions: BODIPY lipid droplet fluorescence, 18-24 h; for cell number change: measured here: cell count max response, cells fed with added oleic acid
Procedure, shortened: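 Drosophila S3 cells got compounds at several concentrations plus oleic acid (400 uM solution). Laser-scanning cytometry with 488 nm excitation read lipid droplets at 500-530 nm and cells at 575-640 nm. Percent activity was relative to 20 uM Triacsin C.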

[1] = measured here: cell number channel AC50, cells fed with added oleic acid
[2] = measured here: lipid fluorescence (Fed channel) AC50, cells fed with added oleic acid

Question: Which AC50 [1] does the source give for CCOC(=O)c1cc(NC(=O)c2cccnc2)cc(C(=O)OCC)c1 here?
Answer: Its AC50 is 2.59 µM [rising, partial curve].

Question: And the AC50 [2]?
Answer: Its AC50 is 2.59 µM [rising, partial curve].

Question: For CS(=O)(=O)c1nc(-c2cccs2)cc(C(F)(F)F)n1, which cell number change is on record?
Answer: Its cell number change is -86.6%.

Question: And the AC50 [1]?
Answer: Its AC50 is 20.6 µM [falling, partial curve].

Question: Which cell number change does the source give for CCOc1ccccc1N1CCN(C(=O)CN2C(=O)NC3(CCCC3)C2=O)CC1 here?
Answer: The cell number change was 13.3%.

Question: For N#C/C(=C/c1cn(-c2ccccc2)nc1-c1cccc(S(=O)(=O)N2CCOCC2)c1)C(=O)NCc1ccco1, which cell number change is on record?
Answer: Its cell number change is 50.1%.

Question: And the AC50 [1]?
Answer: The AC50 was 13 µM [rising, partial curve, poor fit].

Question: And the AC50 [2]?
Answer: Its AC50 is 6.51 µM [rising, single point].

Question: Which results are given for O=C(N=C1SC2CS(=O)(=O)CC2N1c1ccc(OC(F)(F)F)cc1)C1CC1 (configuration not stated)?
Answer: cell number change: -21.2%; AC50 [2]: 29.1 µM [rising, single point]

Question: Which cell number change does the source give for COC(=O)c1cc(-c2c(-c3ccc4c(c3)OCO4)noc2-c2ccsc2)cc([N+](=O)[O-])c1 here?
Answer: The cell number change was -0.324%.

Question: And the AC50 [2]?
Answer: Its AC50 is 29.1 µM [falling, single point].

Question: Which cell number change does the source give for Cc1ccc(NC(=O)NC(=O)COc2ccccc2C(N)=O)c(C)c1 here?
Answer: The cell number change was 1.13%.

Question: What about the AC50 [2] of the same compound?
Answer: The AC50 was 0.461 µM [falling, partial curve, poor fit].

Question: Which AC50 [2] does the source give for COC(=O)C1=C(C)N(C)C(C)=C(C(=O)OC)C1c1ccc(F)c(Br)c1 here?
Answer: The AC50 was 0.13 µM [rising, full curve, poor fit].

Question: For Cc1sc(NC(=O)Cn2cnnn2)nc1-c1ccc(Cl)cc1, which cell number change is on record?
Answer: The cell number change was -1.99%.

Question: With Cc1nc(C)c(C(=O)OC(C)C(=O)Nc2ccc(F)cc2)s1 (configuration not stated) as the compound, how does the cell number change read?
Answer: Its cell number change is 15.7%.

Question: Which cell number change does the source give for CCC(C)Nc1nnnc2c1sc1nc3c(cc12)COC(C)(C)C3 (configuration not stated) here?
Answer: The cell number change was -50.2%.

Question: What about the AC50 [1] of the same compound?
Answer: The AC50 was 14.6 µM [falling, single point].

Question: Which cell number change does the source give for COc1ccccc1-c1c(C)nn2c(C)cc(C)nc12 here?
Answer: Its cell number change is 57.4%.

Question: What about the AC50 [1] of the same compound?
Answer: Its AC50 is 29.1 µM [rising, single point].

Question: With COC(=O)c1ccccc1NC(=O)N1c2ccccc2Sc2ccccc21 as the compound, how does the cell number change read?
Answer: Its cell number change is -41.8%.

Question: What about the AC50 [1] of the same compound?
Answer: Its AC50 is 8.2 µM [falling, partial curve].

Question: What about the AC50 [2] of the same compound?
Answer: Its AC50 is 0.82 µM [falling, full curve].

Question: For O=C(NCc1ccncc1)C1CCCCC1, which cell number change is on record?
Answer: The cell number change was -10.4%.

Question: Which AC50 [1] does the source give for O=C(NN1CCOCC1)c1cc(-c2ccncc2)nc2ccccc12 here?
Answer: Its AC50 is 0.164 µM [rising, full curve, poor fit].

Question: Which cell number change does the source give for O=C(O)COc1ccc(/C=C/C(=O)c2ccc3ccccc3c2)cc1 here?
Answer: Its cell number change is -2.86%.

Question: With CC(=O)Nc1ccc(C(=O)OCC(=O)NCCC2=CCCCC2)cc1 as the compound, how does the cell number change read?
Answer: Its cell number change is -13.3%.

Question: And the AC50 [2]?
Answer: Its AC50 is 6.51 µM [falling, single point].

Question: With CC(=O)C1=C(O)C(=O)N(c2ccc(S(N)(=O)=O)cc2)C1c1ccccc1F (configuration not stated) as the compound, how does the cell number change read?
Answer: Its cell number change is 25.4%.

Question: What about the AC50 [1] of the same compound?
Answer: The AC50 was 0.164 µM [rising, full curve, poor fit].

Question: With CCOc1ccc(CN(C)C(=O)CN2C(=O)NC3(CCCc4ccccc43)C2=O)cc1 (configuration not stated) as the compound, how does the cell number change read?
Answer: The cell number change was -4.15%.

Question: And the AC50 [2]?
Answer: Its AC50 is 29.1 µM [rising, single point].

Question: What does the source list for COC(=O)c1sccc1NC(=O)CSc1ccccc1NS(=O)(=O)c1cc(Cl)ccc1Cl?
Answer: cell number change: 86.5%; AC50 [2]: 18.4 µM [rising, partial curve]

Question: With CCC(C)N(C(=O)COC(=O)C1C(C(=O)OC)=C(C)NC(C)=C1C(=O)OC)C1CCS(=O)(=O)C1 (configuration not stated) as the compound, how does the cell number change read?
Answer: The cell number change was 9.6%.

Question: And the AC50 [1]?
Answer: Its AC50 is 3.26 µM [falling, single point].

Question: Which cell number change does the source give for Cc1ccc(NS(=O)(=O)c2ccc(CCC(=O)NC3CC3)cc2)cc1 here?
Answer: The cell number change was 50.3%.

Question: What about the AC50 [1] of the same compound?
Answer: The AC50 was 5.17 µM [rising, partial curve, poor fit].

Question: And the AC50 [2]?
Answer: Its AC50 is 0.461 µM [rising, partial curve].

Question: Which cell number change does the source give for O=C(c1ccc([N+](=O)[O-])cc1)N(c1ccccn1)c1ccccn1 here?
Answer: The cell number change was -8.71%.

Question: With COC(=O)c1cc(NC(=O)CC2C(=O)NCCN2C(=O)c2ccc(F)cc2)cc(C(=O)OC)c1 (configuration not stated) as the compound, how does the cell number change read?
Answer: The cell number change was -0.0775%.

Question: And the AC50 [2]?
Answer: Its AC50 is 0.259 µM [rising, full curve, poor fit].

Question: Which results are given for Cc1ccc(NC(=O)C2(S(=O)(=O)c3ccc(Cl)cc3)CC2)c(Br)c1?
Answer: cell number change: -16.2%; AC50 [1]: 2.06 µM [falling, single point]

Question: Which cell number change does the source give for CCN(CC)CCNC(=O)c1ccc2c(=O)n(C3CCCC3)c(=S)[nH]c2c1 here?
Answer: Its cell number change is -22.8%.

Question: What about the AC50 [2] of the same compound?
Answer: The AC50 was 0.00517 µM [falling, full curve, poor fit].

Question: Which results are given for COc1cc(NC(=O)Cn2c(C)cc3ccccc3c2=O)cc(OC)c1OC?
Answer: cell number change: -8.37%; AC50 [2]: 1.3 µM [rising, partial curve]

Question: With Cc1c(CN(C)C)c2c(n1Cc1ccccc1)C(=O)c1ccccc1-2 as the compound, how does the cell number change read?
Answer: The cell number change was 22.2%.

Question: Which cell number change does the source give for C/C(=N\NC(=S)NC1CCCCC1)c1cccc(C(F)(F)F)c1 here?
Answer: The cell number change was -1.85%.

Question: What about the AC50 [2] of the same compound?
Answer: Its AC50 is 0.231 µM [rising, full curve].

Question: Which cell number change does the source give for CC1CN(c2ccc(C(=O)c3ccccc3C(=O)O)cc2[N+](=O)[O-])CC(C)O1 (configuration not stated) here?
Answer: The cell number change was 36.6%.

Question: What about the AC50 [1] of the same compound?
Answer: The AC50 was 25.9 µM [rising, single point].

Question: For CCCN1C(=O)S/C(=C/c2ccc(N3CCOCC3)o2)C1=O, which cell number change is on record?
Answer: Its cell number change is -60%.

Question: And the AC50 [1]?
Answer: The AC50 was 18.4 µM [falling, single point].

Question: And the AC50 [2]?
Answer: Its AC50 is 23.1 µM [falling, single point].

Question: For O=C(COC(=O)c1ccco1)c1ccc(F)cc1, which cell number change is on record?
Answer: Its cell number change is -16.2%.

Question: With COc1ccc(C[C@H](N)C(=O)N[C@H]2[C@@H](O)[C@H](n3cnc4c(N(C)C)ncnc43)O[C@@H]2CO)cc1 as the compound, how does the cell number change read?
Answer: Its cell number change is -14.4%.

Question: What does the source list for O=C(NC(=S)Nc1ccccc1N1CCCC1)c1cccc(F)c1?
Answer: cell number change: 9.92%; AC50 [2]: 1.84 µM [rising, partial curve]

Question: Which cell number change does the source give for COc1cc(C(=O)NNC(=O)c2ccc(S(=O)(=O)N3CCCCC3)cc2)cc(OC)c1OC here?
Answer: Its cell number change is -39.1%.

Question: And the AC50 [1]?
Answer: Its AC50 is 0.231 µM [falling, full curve, poor fit].

Question: What about the AC50 [2] of the same compound?
Answer: The AC50 was 0.259 µM [falling, partial curve].

Question: Which cell number change does the source give for O=C(NNS(=O)(=O)c1ccc2ccccc2c1)c1cccs1 here?
Answer: The cell number change was 19.4%.

Question: What about the AC50 [2] of the same compound?
Answer: The AC50 was 23.1 µM [rising, single point].

Question: With CCSc1nnc(N)s1 as the compound, how does the cell number change read?
Answer: Its cell number change is -12.6%.

Question: Which results are given for O=C(c1ncn[nH]1)N1CCN(c2nc(-c3ccccc3)cs2)CC1?
Answer: cell number change: -7.93%; AC50 [2]: 16.4 µM [rising, partial curve]

Question: With COc1ccccc1Nc1ncnc2c1c(C)c(C)n2CCCN(C)C as the compound, how does the cell number change read?
Answer: The cell number change was -12.5%.

Question: Which cell number change does the source give for CCc1ccc(OCC(=O)OC(C)C(=O)Nc2ccc(Cl)cn2)cc1 (configuration not stated) here?
Answer: Its cell number change is -5.91%.

Question: And the AC50 [2]?
Answer: Its AC50 is 0.0291 µM [falling, full curve, poor fit].
